# Measured values taken from the supplement of paper PMC3334620.
# Whole data set: some 33,000 sequences, median “E-score (-0.5 to 0.5)” near -0.015, cut for the highest 2% near 0.3. This is one part of the list.
# Target: T1, Abf1 (UniProt P14164)
# T1 sequence: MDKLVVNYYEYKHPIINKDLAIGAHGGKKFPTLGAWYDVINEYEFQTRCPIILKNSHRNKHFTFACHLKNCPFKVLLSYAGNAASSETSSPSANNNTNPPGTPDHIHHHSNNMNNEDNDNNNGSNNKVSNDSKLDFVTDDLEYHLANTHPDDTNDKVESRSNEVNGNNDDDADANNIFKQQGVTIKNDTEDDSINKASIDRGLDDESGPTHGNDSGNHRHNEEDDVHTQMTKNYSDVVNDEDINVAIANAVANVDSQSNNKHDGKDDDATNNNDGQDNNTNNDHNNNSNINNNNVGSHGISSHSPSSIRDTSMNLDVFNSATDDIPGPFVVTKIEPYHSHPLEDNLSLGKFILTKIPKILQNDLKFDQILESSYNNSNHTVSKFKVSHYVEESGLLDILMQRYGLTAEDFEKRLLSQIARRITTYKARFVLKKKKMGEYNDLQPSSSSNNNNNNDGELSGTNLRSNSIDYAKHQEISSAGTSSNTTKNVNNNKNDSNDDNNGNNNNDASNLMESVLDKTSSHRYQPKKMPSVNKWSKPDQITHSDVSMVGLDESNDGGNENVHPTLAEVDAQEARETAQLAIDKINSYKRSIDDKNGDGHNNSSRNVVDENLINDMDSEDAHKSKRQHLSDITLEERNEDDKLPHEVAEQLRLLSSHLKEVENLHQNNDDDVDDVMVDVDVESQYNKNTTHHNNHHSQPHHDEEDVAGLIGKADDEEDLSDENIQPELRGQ
# Assay: PBM E-score (8-mer binding enrichment) (E-score (-0.5 to 0.5)); higher = stronger / more preferred TF binding
# Conditions: protein concentration: 200 nM; construct: GST-full length
# In short: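 GST-tagged yeast TFs (full-length or DNA-binding domain) were made by PURExpress in vitro transcription/translation and applied at about 100-200 nM to universal all-10-mer Agilent arrays. The arrays were made double-stranded by primer extension, on fresh or once-stripped slides. Bound protein was detected with fluorescent anti-GST, and scans were normalised with masliner. Each ungapped eight-base word, pooled with its reverse complement, received an E-score (modified Wilcoxon-Mann-Whitney statistic) from the Universal PBM Analysis Suite.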
row,Sequence,PBM E-score
1,CGCTACAC,0.00471
2,ACTTAACA,0.139
3,ACAAAGCA,0.115
4,AGCTCACG,-0.042
5,CGAGACAA,-0.038
6,ATCGTAAT,0.146
7,CCATTCAA,0.0605
8,AGCTAATG,0.078
9,ATACCTGC,-0.0717
10,ATGTTTTC,0.133
11,ATCAAATA,0.235
12,GATGTGCA,-0.118
13,CAAGAACG,0.123
14,ATGGTTGC,-0.146
15,ATGACGTA,0.211
16,CATTGGCG,-0.25
17,ATAGTGAC,0.35
18,CACCCAGA,-0.0576
19,CCTTGTTC,-0.212
20,ATCCTAAT,0.0915
21,ATCATCTA,0.291
22,ACCCAGCA,-0.188
23,AGGAACAG,-0.208
24,CTACAGAC,-0.229
25,ATTCTAGG,0.0854

row,Sequence,PBM E-score
1,GCAGCGAA,0.0653
2,ACTCTCCT,-0.168
3,AGCCAGCG,-0.281
4,CGGAGTGA,0.237
5,CAAAGGGG,-0.0494
6,AGATTCAG,-0.14
7,CCTAGGCC,-0.277
8,GCCGACGC,-0.159
9,ACTCTCTA,-0.0552
10,AATGTCAG,-0.169
11,CAAAGATC,0.0538
12,GACGACAC,0.252
13,AACAGCCG,-0.168
14,CAGATGAA,-0.123
15,ACCGGCAA,-0.259
16,AGTTTACC,-0.0701
17,ACAGCATA,0.113
18,GCAGCGCA,-0.223
19,CTTTATCA,0.313
20,GCATCTCA,0.0322
21,CAAACAAG,-0.17
22,CACAACTC,0.0448
23,AAACGCCC,0.133
24,ATGCATCA,0.22
25,ATACAAGG,-0.0856

row,Sequence,PBM E-score
1,CTTTGAGA,0.156
2,ATTCCGCA,0.123
3,AACCCATG,0.00204
4,AAATGTTC,0.16
5,CTAAAAGC,-0.181
6,CAACATTC,-0.0911
7,TGCCACAA,0.0174
8,CGTTACGC,0.0353
9,CCCCCTTC,-0.464
10,TAACGGAA,0.0913
11,CACTTGGG,-0.0864
12,ACCCGGGT,-0.155
13,AGCGCTTC,0.0607
14,CAAAATGG,0.0567
15,CCCGAACG,0.0124
16,AGTATCAG,-0.00211
17,ATGGCAAG,0.0854
18,CTCGAGGA,-0.1
19,ACGGGACC,-0.119
20,AAGAGCAT,-0.0336
21,ACATGGTG,0.109
22,CTACATAG,0.0196
23,CTGATCCC,-0.116
24,GCTTGCGA,0.0664
25,ATTCATTG,0.0974

row,Sequence,PBM E-score
1,ACCACGAC,0.161
2,AAGCTCAC,0.105
3,AGATGGCT,-0.106
4,CCCCTCGG,-0.125
5,ACAACGGA,0.233
6,ATCACATG,0.0987
7,GCCAATAC,-0.111
8,ATAAGTGA,0.3
9,AGCGTAGA,-0.17
10,AGCTGCCC,0.102
11,AATCAGGA,-0.0118
12,GACCCGCC,-0.133
13,GTACACCA,-0.148
14,CAGACTCA,-0.218
15,ACTCGCCG,-0.0223
16,CATCCCGC,0.0181
17,CGTCGCGC,0.158
18,GGACGATA,0.268
19,AGCCGCGA,-0.183
20,ATACGAGG,0.179
21,ATGAGCGC,0.0585
22,AAAGATTA,0.124
23,CGCTCTTC,-0.178
24,AAACTAGT,-0.0126
25,GATTCCGA,-0.0139

row,Sequence,PBM E-score
1,GGACAGAA,-0.133
2,CATGGCTA,0.0942
3,GCTTATTA,0.191
4,ACGTTATG,0.0618
5,CCTAACAG,-0.104
6,TCGCCTAA,-0.0538
7,GACGGGCA,0.0489
8,CGCAGTAC,-0.177
9,AGCTCATC,-0.224
10,AACTCGAA,-0.0259
11,GATGCAAC,-0.0139
12,CTTGCTGC,-0.0947
13,CGTTCAAC,0.276
14,AGGAAAGG,-0.122
15,ACACGAAG,0.269
16,TTAAGGAA,0.0723
17,ACCGTGAG,0.125
18,CTAGATCA,0.161
19,ATGTAAGG,-0.0364
20,CCAGAGCC,-0.164
21,GACTAATA,0.0833
22,CGCTTCTC,-0.154
23,ACGGCCGA,0.151
24,CAGCGTCG,-0.0875
25,GGAACTGA,-0.177

# Some of the entries so far, with bars between the fields:
row | Sequence | PBM E-score
22 | CGCTTCTC | -0.154
23 | ACGGCCGA | 0.151
24 | CAGCGTCG | -0.0875

# (list continues)

row,Sequence,PBM E-score
1,ACGGATAG,0.101
2,AGTTAGCC,0.056
3,CAAACCCG,0.204
4,GATCTATA,0.163
5,CTGGCCAC,-0.131
6,ACCTGTCC,-0.19
7,GATTTGTA,0.163
8,CGCTTTAG,-0.0454
9,GTTGTTGA,-0.0511
10,AGTGAACA,-0.0718
11,TGGTCGAA,-0.0878
12,TAGAAATA,0.0745
13,AGAATGCC,-0.0624
14,AATTTTGC,-0.118
15,AAGCCCTG,-0.0659
16,AATATGCG,0.198
17,GAAATGAC,0.312
18,CCACTATA,0.0935
19,GTTTCCGA,-0.0193
20,GCCGGAGC,-0.139
21,CCCATTCG,-0.0848
22,GCAGGACC,-0.223
23,CCATATGC,0.0265
24,CAGCATCG,-0.122
25,AGGGATTC,-0.00272

# 6 records picked at random from the list so far:
row,Sequence,PBM E-score
9,ATACCTGC,-0.0717
22,CGCTTCTC,-0.154
13,AGCGCTTC,0.0607
10,AGCTGCCC,0.102
13,AGAATGCC,-0.0624
4,AGCTCACG,-0.042

# (next part)

row,Sequence,PBM E-score
1,CGCTGGCA,0.21
2,CCCCATAA,-0.132
3,CCTATTAG,-0.0388
4,TCAGGGAA,-0.149
5,TCTTGCCA,-0.11
6,AAATGCAG,0.0843
7,GCGCCATA,-0.099
8,AGTTTGCA,-0.154
9,CCGATCCC,-0.198
10,CACAGATC,-0.0494
11,AATGGGTC,-0.274
12,CGTCGTAA,0.392
13,AAATTCTG,-0.00748
14,AAGATTGG,-0.00117
15,GGCACGAC,0.289
16,AGAGACTA,-0.115
17,CACAGCTC,-0.127
18,ACCTAGTG,0.111
19,CAACTTCC,0.102
20,GTCAGTTA,-0.162
21,CCGGCAAA,-0.17
22,GTAATAAA,0.313
